PubChem BioAssay AID1259254, NCATS – 2017
Screen: 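Genome-wide screen for genes that prevent DNA re-replication in cancer cells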 (primary screen). Cells: human HCT116 colorectal cancer cells. Reagents: single siRNA against human genes. Time to read-out: 3 days. Detection: 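Imaged Hoechst DNA stain sorts each cell into a cycle phase by DNA amount; per plate, G2 fraction set to 0% for non-targeting and 100% for GMNN siRNA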. Direction: G2 robust z-score and G2 cells, % of GMNN control: higher = more G2 cells, more excess DNA replication; raw share of cells in G2: higher = larger share of cells with G2 DNA content. Active means: 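An siRNA counts as active if its G2 robust z-score lies at least 5 MADs above the screen median; here such calls match roughly 38% of GMNN control or more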.
Shown is an unselected part of about 59,000 deposited reagents. Of all reagents, about 1,550 (2.6%) were called active. 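G2 share is only a proxy for re-replication; each gene was hit by three separate siRNAs, and active genes were retested.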 Raw values are not corrected between plates. The numbers tell different reagents against one gene apart. Not stated in the record: the amount of reagent.

Target gene | reagent no. | G2 robust z-score | G2 cells, % of GMNN control | raw share of cells in G2 (%) | outcome
CATSPERG (GeneID 57828) | 1 | 0.954 | 9.68 | 8.16 | inactive
CATSPERG (GeneID 57828) | 2 | -0.552 | -0.918 | 4.02 | inactive
CATSPERG (GeneID 57828) | 3 | -0.186 | 1.66 | 3.56 | inactive
METTL1 (GeneID 4234) | 1 | -1.01 | -4.16 | 3.75 | inactive
METTL1 (GeneID 4234) | 2 | 1.09 | 10.6 | 6.7 | inactive
METTL1 (GeneID 4234) | 3 | -0.467 | -0.321 | 5.34 | inactive
MEST (GeneID 4232) | 1 | -0.0473 | 2.63 | 6.48 | inactive
MEST (GeneID 4232) | 2 | -0.245 | 1.24 | 5.35 | inactive
MEST (GeneID 4232) | 3 | -0.849 | -3.01 | 2.79 | inactive
ABCC9 (GeneID 10060) | 1 | 3.74 | 29.3 | 13.2 | inactive
ABCC9 (GeneID 10060) | 2 | 3.6 | 28.3 | 16.2 | inactive
ABCC9 (GeneID 10060) | 3 | 0.0444 | 3.28 | 6.44 | inactive
IFRD2 (GeneID 7866) | 1 | -0.91 | -3.43 | 3.61 | inactive
IFRD2 (GeneID 7866) | 2 | -0.507 | -0.598 | 3.66 | inactive
IFRD2 (GeneID 7866) | 3 | 1.72 | 15 | 8.67 | inactive
RNF133 (GeneID 168433) | 1 | 3.88 | 30.2 | 17.4 | inactive
RNF133 (GeneID 168433) | 2 | 0.942 | 9.59 | 10.5 | inactive
RNF133 (GeneID 168433) | 3 | -0.6 | -1.26 | 4.24 | inactive
ATAD3A (GeneID 55210) | 1 | 1.12 | 10.9 | 8.87 | inactive
ATAD3A (GeneID 55210) | 2 | 3.57 | 28.1 | 18.7 | inactive
ATAD3A (GeneID 55210) | 3 | 1.01 | 10 | 8.04 | inactive
SLC37A4 (GeneID 2542) | 1 | 3.96 | 30.8 | 16.4 | inactive
SLC37A4 (GeneID 2542) | 2 | -0.835 | -2.91 | 4.16 | inactive
SLC37A4 (GeneID 2542) | 3 | 3.94 | 30.7 | 14.6 | inactive
GALNS (GeneID 2588) | 1 | -0.605 | -1.29 | 4.77 | inactive
GALNS (GeneID 2588) | 2 | -1.14 | -5.09 | 3.33 | inactive
GALNS (GeneID 2588) | 3 | -0.862 | -3.1 | 2.55 | inactive
ZNF702P (GeneID 79986) | 1 | 0.748 | 8.23 | 5.7 | inactive
ZNF702P (GeneID 79986) | 2 | -1.09 | -4.72 | 3.77 | inactive
ZNF702P (GeneID 79986) | 3 | -0.185 | 1.67 | 4.16 | inactive

3 entries from above, sorted by “G2 cells, % of GMNN control”, ascending.
Target gene | reagent no. | G2 robust z-score | G2 cells, % of GMNN control | raw share of cells in G2 (%) | outcome
RNF133 (GeneID 168433) | 3 | -0.6 | -1.26 | 4.24 | inactive
RNF133 (GeneID 168433) | 2 | 0.942 | 9.59 | 10.5 | inactive
RNF133 (GeneID 168433) | 1 | 3.88 | 30.2 | 17.4 | inactive
